In this data set the target is T1, DnaA wild-type (Escherichia coli) (UniProt P03004).
T1 sequence (looked up, limits assumed): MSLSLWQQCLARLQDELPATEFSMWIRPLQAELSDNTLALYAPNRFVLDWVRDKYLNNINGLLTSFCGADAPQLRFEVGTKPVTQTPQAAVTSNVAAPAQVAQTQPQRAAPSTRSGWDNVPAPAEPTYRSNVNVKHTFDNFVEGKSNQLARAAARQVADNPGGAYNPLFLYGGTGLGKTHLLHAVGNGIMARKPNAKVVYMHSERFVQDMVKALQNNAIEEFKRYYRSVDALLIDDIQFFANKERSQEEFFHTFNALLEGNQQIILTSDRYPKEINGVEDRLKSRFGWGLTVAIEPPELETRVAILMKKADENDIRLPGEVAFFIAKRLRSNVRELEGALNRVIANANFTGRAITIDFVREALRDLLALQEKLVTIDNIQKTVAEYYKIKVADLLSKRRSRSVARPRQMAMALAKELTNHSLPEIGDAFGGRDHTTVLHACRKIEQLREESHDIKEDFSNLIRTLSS
The data set is described as follows: EMSA. The conditions noted are these: 2 mM ATP, 5 mM Mg acetate, EMSA oriC/PdnaA: 20 mM HEPES-KOH pH 8.0, 5 mM Mg acetate, 1 mM EDTA, 4 mM DTT, 0.2% Triton X-100, 5% glycerol, 0.5 mg/ml BSA, 20 C, recombinant protein, label: 5' FAM, probe letters rebuilt from the primers and the genome.

For at least one entry, the source does not settle the construct or the ends of the probe. Protein sequences can lack the tags named with them.

As for “TGGTCATTAAATTTTCCAATATGCGGCGTAAATCGTGCCCGCCTCGCGGCAGGATCGTTTACACTTAGCGAGTTCTGGAAAGTCCTGTGGATAAATCGGGAAAATCTGTGAGAAACAGAAGATCTCTTGCGCAGTTTAGGCTATGATCCGCGGTCCCGATCGTTTTGCAGGATCTTGATCGGGCATATAACCGCAGACAGCGGTTCGTGCGTCACCCTCAAGCAGGGTCTTTTCGACGTACGTCAACAATCATGAATGTTTCAGCCTTAGTCATTATCGACTTTTGTTCGAGTGGAGTCCGCC (double strand) [dnaA promoter (PdnaA)]”, the binding result is listed as “binds”. For “CCCGGGCCGTGGATTCTACTCAACTTTGTCGGCTTGAGAAAGACCCGGGATCCTGGGTATTAAAAAGAAGATCTATTTATTTAGAGATCTGTTCTATTGTGATCTCTTATTAGGATCGCACTGCCCTGTGGATAACAAGGATCCGGCTTTTAAGATCAACAACCTGGAAAGGATCATTAACTGTGAATGATCGGTGATCCTGGACCGTATAAGCTGGGATCAGAATGAGGGGTTATACACAACTCAAAAACTGAACAACCGTTGTTCCTTGGATAACTACCGGTTGATCCAAGCTTCCTGACAGAGTTATCCACAGTAGATCGCACGATCTGTATACTTATTTGAGTAAATTAATCCACGATCCCAGCCATTCTTCTGCCGGATCTTCCGGAATGTCGTGATCAAGAATGTTGATCTTCAGTGTTTCGCCTGTCTGTTTTGCACCGGAATCTTTGAGTTCTGCCTCGAG (double strand) [oriC 469 bp (EMSA)]”, the binding result (0-2.4 pmol DnaA) was “binds”.

These data come from publication PMC5397419.
